# From patent US8372971B2, “Heterocyclic compounds and methods of use” (TargeGen, Inc., priority 2004, dated 2013)
# Structures can show the parent of a compound that is named as a salt. The name of at least one read-out is uncertain.
# Test system: p-MEK and p-ERK levels in HUVECs
# Assay: Western Blot, inhibition of MAPK pathway in cellular assay (Example 105)
# Format: cell-based, human
# Conditions: concentration not given, 50 ng/ml VEGF or FGF
# Procedure: Some compounds described by the general structure (B) were tested for inhibition of MAPK pathway in cellular assay. Western Blot: Early passage primary human umbilical vein endothelial cells (HUVECs) were maintained in EGM-2 containing SingleQuots (Cambrex, East Rutherford, N.J.), 10% FBS, 10 mM HEPES, and 50 μg/ml gentamicin. Prior to treatment of the cells with inhibitor, the HUVECs were starved for 18 h by replacing serum-containing complete media with serum-free and SingleQuot-free media. The starved cells were pre-treated with inhibitors for 60 min at various concentrations (0-20 μM). Next the HUVECs were treated with 50 ng/ml VEGF or FGF (Peprotech, Rocky Hill, N.J.) for 6 min and the cells were immediately washed with ice-cold PBS. Cells were lysed with ice-cold RIPA buffer containing 100 mM Tris pH 7.5, 150 mM NaCl, 1 mM EDTA, 1% deoxycholate, 1% Triton X-100, 0.1% SDS, 2 mM PMSF, one Complete-Mini protease inhibitor tablet (Roche, Indianapolis, Ind.; 1 tablet/7 ml of lysis buffer) and the phophatase inhibitors NaF (500 mM) and orthovanadate (1 mM). The cells were scraped and lysates transferred and centrifuged at 15,000 g for 10 main. Supernatants were transferred to new tubes and protein concentration was quantitated using the BCA protein reagent (Pierce, Rockford, Ill.). Cell lysates containing 20 μg of total protein were separated by 10% SDS-PAGE, transferred to nitrocellulose, and blocked in 5% milk in TBST. Anti phospho-ERK Thr 202/Tyr 204 (Cell Signaling, Beverly, Mass.), anti-phospho-MEK Ser217/221 (Cell Signaling), and c-Raf (BD Biosciences Pharmingen, San Diego, Calif.) used as primary antibodies were detected with horseradish peroxidase-conjugated goat anti-mouse or rabbit secondary antibodies and bands were visualized using the SuperSignal West Pico chemiluminescence reagent system (Pierce) and Kodak X-ray film (Rochester, N.Y.).
smiles,measurement,value
"CNC(=O)c1cc(Oc2ccc(Nc3nnc(-c4ccc(Cl)c(C(F)(F)F)c4)[nH]3)cc2)ccn1 [4-[4-({5-[4-chloro-3-(trifluoromethyl)phenyl]-4H-1,2,4-triazol-3-yl}amino)phenoxy]-N-methylpyridine-2-carboxamide trifluoroacetate salt]",Western Blot,not active
"CNC(=O)c1cc(Oc2cccc(-c3nnc(Nc4ccc(Cl)c(C(F)(F)F)c4)[nH]3)c2)ccn1 [4-{3-[5-(4-chloro-3-trifluoromethyl-phenylamino)-4H-[1,2,4]triazol-3-yl]-phenoxy}-pyridine-2-carboxylic acid methylamide trifluoroacetic acid salt]",Western Blot,not active
"CNC(=O)c1cc(Oc2ccc(Nc3nnc(-c4ccc(OC(F)(F)F)cc4)[nH]3)cc2)ccn1 [4-{4-[5-(4-trifluoromethoxy-phenyl)-4H-[1,2,4]triazol-3-ylamino]-phenoxy}-pyridine-2-carboxylic acid methylamide trifluoroacetic acid salt]",Western Blot,not active
"CNC(=O)c1cc(Oc2ccc(-c3nnc(Nc4ccc(OC(F)(F)F)cc4)[nH]3)cc2)ccn1 [4-{4-[5-(4-trifluoromethoxy-phenylamino)-4H-[1,2,4]triazol-3-yl]-phenoxy}-pyridine-2-carboxylic acid methylamide trifluoroacetic acid salt]",Western Blot,not active
"FC(F)(F)c1ccc(Cl)c(Nc2nnc(-c3ccc(Oc4cncnc4)cc3)o2)c1 [5-[4-(Pyrimidin-5-yloxy)phenyl]-N-[2-chloro-5-(trifluoromethyl)-phenyl]-1,3,4-oxadiazol-2-amine]",Western Blot,not active
"FC(F)(F)c1cc(-c2nnc(Nc3ccc(Oc4ccncc4)cc3)[nH]2)ccc1Cl [5-[4-chloro-3-(trifluoromethyl)phenyl]-N-[4-(pyridine-4-yloxy)phenyl]-4H-1,2,4-triazol-3-amine trifluoroacetate salt]",Western Blot,not active
"Nc1cc(Oc2ccc(-c3nnc(Nc4cc(C(F)(F)F)ccc4Cl)o3)cc2)nc(N)n1 [6-(4-{5-[(2-chloro-5-trifluoromethyl-phenyl)amino]-1,3,4-oxadiazol-2-yl}phenoxy)pyrimidine-2,4-diamine]",Western Blot,not active
"Nc1ccc(Oc2ccc(-c3nnc(Nc4ccc(Cl)c(C(F)(F)F)c4)[nH]3)cc2)nn1 [6-{4-[5-(4-chloro-3-trifluoromethyl-phenylamino)-4H-[1,2,4]triazol-3-yl]-phenoxy}-pyridazin-3-ylamine trifluoroacetic acid salt]",Western Blot,not active
"Nc1ccc(Oc2ccc(-c3nnc(Nc4ccc(OC(F)(F)F)cc4)[nH]3)cc2)nn1 [6-{4-[5-(4-trifluoromethoxy-phenylamino)-4H-[1,2,4]triazol-3-yl]-phenoxy}-pyridazin-3-ylamine trifluoroacetic acid salt]",Western Blot,not active
"Nc1cc(Oc2ccc(-c3nnc(Nc4ccc(OC(F)(F)F)cc4)[nH]3)cc2)nc(N)n1 [6-{4-[5-(4-trifluoromethoxy-phenylamino)-4H-[1,2,4]triazol-3-yl]-phenoxy}-pyrimidine-2,4-diamine trifluoroacetic acid salt]",Western Blot,not active
"FC(F)(F)Oc1ccc(Nc2nnc(-c3ccc(Oc4ccncc4)cc3)[nH]2)cc1 [{5-[4-(pyridin-4-yloxy)-phenyl]-4H-[1,2,4]triazol-3-yl]-(4-trifluoromethoxy-phenyl)-amine trifluoroacetic acid salt]",Western Blot,not active
